Our source for the survivor count and T/C values is PubChem BioAssay AID248 (DTP/NCI, 2004).

The list is a part of this screen's results and no random one: it is rich in T/C values a quarter to a half above the control, in often repeated tests (any T/C) and in doses without a T/C. Other doses and runs of a compound stand elsewhere. T/C gives the treated animals as a percentage of the vehicle group. Some entries give survivors of the animals treated and no T/C: the source files T/C as zero there, which appears to mark a toxic dose or a test without result, not a measured value. Some doses without a T/C left all or most animals alive at the check, yet need not have been tolerated: survival well below the control is almost never listed, so the zero probably covers shortened survival too. Counts of survivors are from the toxicity check (mostly the fifth day) where no day follows; animals may have died later. Schedule codes are those of the source, read here as Q, the interval in days (D) or hours (H), X, the number of doses. For survival time, this PubChem deposit counts one and a half times the control or more as active, and values a quarter to a half above the control carry no call in these data; other NCI protocols may use other cut-offs.

The subject of this assay is L1210 leukemia ip in BDF1 mice, survival T/C. Briefly: NCI In Vivo Anticancer Drug Screen. Data for tumor model L1210 Leukemia (intraperitoneal) in B6D2F1 (BDF1) mice. To be noted: T/C endpoint: mean survival time, higher T/C = longer survival.
The mark [1] stands for this setting: dose: 400.0 mg/kg/injection, schedule: Q01DX001 (ip), vehicle: carboxymethylcellulose (CMC).
[2] abbreviates: dose: 400.0 mg/kg/injection, schedule: Q04DX003 (ip), vehicle: saline with Tween-80.
Setting [3] is: dose: 400.0 mg/kg/injection, schedule: Q01DX009 (ip), vehicle: Klucel (hydroxypropylcellulose) (HPC).
The mark [4] stands for this setting: dose: 200.0 mg/kg/injection, schedule: Q01DX001 (ip), vehicle: saline.
Setting [5] is: dose: 400.0 mg/kg/injection, schedule: Q01DX001 (ip), vehicle: saline.
The mark [6] stands for this setting: dose: 400.0 mg/kg/injection, schedule: Q04DX002 (ip), vehicle: saline.
The mark [7] stands for this setting: dose: 400.0 mg/kg/injection, schedule: Q04DX003 (ip), vehicle: saline.
[8] abbreviates: dose: 100.0 mg/kg/injection, schedule: Q04DX003 (ip), vehicle: saline with Tween-80.
Setting [9] is: dose: 300.0 mg/kg/injection, schedule: Q01DX001 (ip), vehicle: saline.
The mark [10] stands for this setting: dose: 100.0 mg/kg/injection, schedule: Q01DX001 (ip), vehicle: saline.

With `O=C(CCc1ccccc1)NC1CCCCC1`, the survivor count runs as follows: (dose: 100.0 mg/kg/injection, schedule: Q01DX001 (ip), vehicle: Klucel (hydroxypropylcellulose) (HPC)) 6 of 6; (dose: 200.0 mg/kg/injection, schedule: Q01DX001 (ip), vehicle: Klucel (hydroxypropylcellulose) (HPC)) 6 of 6; (dose: 400.0 mg/kg/injection, schedule: Q01DX001 (ip), vehicle: Klucel (hydroxypropylcellulose) (HPC)) 6 of 6.

As for `C[Si](C)(N1CC1)N1CC1`, the survivor count (dose: 100.0 mg/kg/injection, schedule: Q01DX001 (ip), vehicle: carboxymethylcellulose (CMC)) is recorded as 0 of 4; the survivor count (dose: 200.0 mg/kg/injection, schedule: Q01DX001 (ip), vehicle: carboxymethylcellulose (CMC)) is reported as 0 of 4; the survivor count under setting [1] is reported as 0 of 4.

Turning to `Nc1nccs1`, the survivor count reads like this: (dose: 25.0 mg/kg/injection, schedule: Q04DX002 (ip), vehicle: saline) 1 of 3; (dose: 50.0 mg/kg/injection, schedule: Q04DX002 (ip), vehicle: saline) 0 of 3; (dose: 100.0 mg/kg/injection, schedule: Q04DX002 (ip), vehicle: saline) 0 of 3.

With `Nc1cccc(OCCCCc2ccccc2)c1`, under setting [2], the survivor count is on record as 5 of 6.

As to `CCc1ccccc1NC(=O)Nc1ccc(C(=O)O)cc1`, the survivor count under setting [3] is listed as 1 of 6.

As for `CCC(CC)(CCN(C)C)c1ccccc1`, the survivor count under setting [1] is on record as 0 of 4.

For `NC1=CC(=O)C(=O)c2cccnc21`, the survivor count reads like this: (dose: 150.0 mg/kg/injection, schedule: Q01DX001 (ip), vehicle: other) 2 of 7; (dose: 300.0 mg/kg/injection, schedule: Q01DX001 (ip), vehicle: other) 0 of 7.

With `CN(Cc1ccccc1)C(Cc1c[nH]c2ccccc12)C(=O)O` (stereo unspecified), the survivor count is, setting by setting: under setting [4], 6 of 6; under setting [5], 3 of 6.

As to `CCN(CC)CCCC(C)Nc1cc(C)nc2ccc(N(C)C)cc12` (stereo unspecified), the survivor count (dose: 100.0 mg/kg/injection, schedule: Q01DX009 (ip), vehicle: saline with Tween-80) is 2 of 6; the survivor count (dose: 200.0 mg/kg/injection, schedule: Q01DX009 (ip), vehicle: saline with Tween-80) is on record as 0 of 6; the survivor count (dose: 400.0 mg/kg/injection, schedule: Q01DX009 (ip), vehicle: saline with Tween-80) is on record as 0 of 6.

On to `CN(CCCl)C1c2ccccc2-c2ccccc21`, for which the survivor count is reported as 0 of 3 (dose: 200.0 mg/kg/injection, schedule: Q04DX002 (ip), vehicle: saline) and 0 of 3 under setting [6].

With `CCCN(C(=O)CCl)c1ccccc1`, the survivor count runs as follows: (dose: 100.0 mg/kg/injection, schedule: Q04DX002 (ip), vehicle: Klucel (hydroxypropylcellulose) (HPC)) 2 of 3; (dose: 200.0 mg/kg/injection, schedule: Q04DX002 (ip), vehicle: Klucel (hydroxypropylcellulose) (HPC)) 1 of 3; (dose: 400.0 mg/kg/injection, schedule: Q04DX002 (ip), vehicle: Klucel (hydroxypropylcellulose) (HPC)) 0 of 3.

Consider `CC(C)c1ccc(/C=N\[N+](C)(C)C)cc1`, for which the survivor count under setting [7] is recorded as 0 of 3.

As to `Cc1ccc(S(=O)(=O)Nc2cc(Cl)c(I)cc2Cl)cc1`, under setting [8], the survivor count was 6 of 6.

Consider `CC1(ON(c2cc(Cl)cc(Cl)c2)C2(C)c3ccccc3-c3ccccc32)c2ccccc2-c2ccccc21`, for which, under setting [2], the survivor count is reported as 6 of 6.

As to `C=CC(=C)CCC=C(C)C`, the survivor count (dose: 100.0 mg/kg/injection, schedule: Q04DX003 (ip), vehicle: saline) is 6 of 6.

On to `CCNCCCNc1ccnc2cc(Cl)ccc12`, for which the survivor count reads like this: (dose: 75.0 mg/kg/injection, schedule: Q01DX001 (ip), vehicle: saline) 2 of 6; (dose: 150.0 mg/kg/injection, schedule: Q01DX001 (ip), vehicle: saline) 0 of 6; under setting [9], 0 of 6.

As to `COc1cccn(C/C=C(\C)CCC=C(C)C)c1=O`, the survivor count is reported as 2 of 6 under setting [8]; 3 of 6 (dose: 200.0 mg/kg/injection, schedule: Q04DX003 (ip), vehicle: saline with Tween-80); 1 of 6 under setting [2].

Consider `FC(F)(F)C(Cl)(c1ccc(Cl)cc1)c1ccc(Cl)cc1`, for which, for the setting “dose: 200.0 mg/kg/injection, schedule: Q04DX003 (sc), vehicle: olive oil, sesame oil, peanut oil”, the T/C was 127 % of control.

Turning to `CC1(C)N=C(N)N=C(N)N1c1cccc(C(=O)O)c1`, the survivor count under setting [10] is reported as 1 of 6, the survivor count under setting [4] is recorded as 2 of 6 and the survivor count under setting [5] is 0 of 6.

With `CN(C)/C=C1\CCOC1=O`, under setting [6], the survivor count is listed as 1 of 3.

On to `CCOC(=O)/C=C(\CC(=O)OCC)Nc1ccc(C(=O)c2ccccc2)cc1`, for which the survivor count is 6 of 6 under setting [10] and 2 of 6 under setting [5].

For the compound `CN(C)/C=N/N1CCCCCC1`, the survivor count by setting is: (dose: 200.0 mg/kg/injection, schedule: Q04DX003 (ip), vehicle: saline) 1 of 6; under setting [7], 1 of 6.

On to `COc1cc(/C=C(/C#N)[N+](=O)[O-])ccc1O`, for which the survivor count runs as follows: (dose: 12.5 mg/kg/injection, schedule: Q01DX009 (ip), vehicle: DMSO) 6 of 6; (dose: 100.0 mg/kg/injection, schedule: Q04DX003 (ip), vehicle: DMSO) 3 of 6; (dose: 200.0 mg/kg/injection, schedule: Q04DX003 (ip), vehicle: DMSO) 0 of 6; (dose: 400.0 mg/kg/injection, schedule: Q04DX003 (ip), vehicle: DMSO) 0 of 6.

On to `CCCCCN1C(=O)NC(=O)C(Cl)C1=O` (stereo unspecified), for which the survivor count is listed as 1 of 6 under setting [4] and 0 of 6 under setting [5].

For the compound `N#CC(C#N)=Cc1cccc2ccccc12`, the survivor count under setting [3] is given as 2 of 6.

With `O=C1CCC2C3CCC(=O)C3C12` (stereo unspecified), under setting [9], the survivor count was 0 of 6.
